Experimental data published in patent US20250032629A1, “NOVEL NUCLEOLIN-BINDING PEPTIDE AND USE THEREOF” (ANYGEN CO., LTD., priority 2020, published 2025).
Results are given in words; binding and its absence hold for the method and conditions named. For part of these data: Binding seen in cells or lysates may run through a third protein. Some results given as binding are weak or reduced against the parent protein; the word gives no strength.

The chains behind the UniProt entries cited, without tags or fusion partners. Where a name states a change or a piece, a line headed by the entry shows the natural chain unless it says otherwise. Residues count along the entry.
UniProt P19338: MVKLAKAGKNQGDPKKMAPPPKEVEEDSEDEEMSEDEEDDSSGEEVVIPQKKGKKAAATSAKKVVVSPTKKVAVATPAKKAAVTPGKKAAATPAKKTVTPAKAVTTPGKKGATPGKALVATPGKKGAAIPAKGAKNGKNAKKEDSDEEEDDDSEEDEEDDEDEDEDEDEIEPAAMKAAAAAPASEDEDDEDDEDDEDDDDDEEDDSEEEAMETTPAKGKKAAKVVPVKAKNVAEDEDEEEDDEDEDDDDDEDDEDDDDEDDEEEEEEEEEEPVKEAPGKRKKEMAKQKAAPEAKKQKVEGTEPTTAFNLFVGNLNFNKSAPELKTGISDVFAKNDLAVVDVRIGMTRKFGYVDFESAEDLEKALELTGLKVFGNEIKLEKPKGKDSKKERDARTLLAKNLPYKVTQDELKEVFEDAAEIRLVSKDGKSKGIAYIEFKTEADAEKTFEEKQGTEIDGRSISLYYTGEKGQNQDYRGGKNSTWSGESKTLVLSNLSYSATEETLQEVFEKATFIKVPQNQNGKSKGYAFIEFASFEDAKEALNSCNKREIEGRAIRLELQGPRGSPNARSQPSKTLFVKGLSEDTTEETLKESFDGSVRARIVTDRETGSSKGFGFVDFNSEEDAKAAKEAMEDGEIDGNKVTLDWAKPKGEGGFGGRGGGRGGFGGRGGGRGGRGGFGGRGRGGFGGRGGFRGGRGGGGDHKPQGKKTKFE
UniProt P55072, residues 2-806: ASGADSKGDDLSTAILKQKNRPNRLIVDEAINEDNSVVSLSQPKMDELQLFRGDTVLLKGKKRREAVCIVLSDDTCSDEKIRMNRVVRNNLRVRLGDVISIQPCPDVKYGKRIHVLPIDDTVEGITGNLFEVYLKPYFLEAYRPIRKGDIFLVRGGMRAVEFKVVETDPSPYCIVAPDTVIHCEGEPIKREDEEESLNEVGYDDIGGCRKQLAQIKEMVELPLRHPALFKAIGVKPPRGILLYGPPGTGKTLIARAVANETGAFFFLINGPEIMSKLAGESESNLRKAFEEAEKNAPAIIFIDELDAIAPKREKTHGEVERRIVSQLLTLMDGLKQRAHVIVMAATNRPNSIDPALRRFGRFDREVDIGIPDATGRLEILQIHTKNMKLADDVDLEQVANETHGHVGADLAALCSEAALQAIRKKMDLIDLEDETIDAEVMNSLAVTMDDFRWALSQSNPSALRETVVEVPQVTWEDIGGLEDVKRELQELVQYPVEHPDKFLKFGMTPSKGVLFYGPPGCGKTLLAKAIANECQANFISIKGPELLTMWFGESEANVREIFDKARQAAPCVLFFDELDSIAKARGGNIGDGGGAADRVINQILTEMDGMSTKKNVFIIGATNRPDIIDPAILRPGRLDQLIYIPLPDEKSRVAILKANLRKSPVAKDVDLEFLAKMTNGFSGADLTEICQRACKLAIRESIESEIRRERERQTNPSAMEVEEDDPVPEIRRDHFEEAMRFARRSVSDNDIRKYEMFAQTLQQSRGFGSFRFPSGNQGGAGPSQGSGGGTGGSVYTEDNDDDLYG
UniProt O43707: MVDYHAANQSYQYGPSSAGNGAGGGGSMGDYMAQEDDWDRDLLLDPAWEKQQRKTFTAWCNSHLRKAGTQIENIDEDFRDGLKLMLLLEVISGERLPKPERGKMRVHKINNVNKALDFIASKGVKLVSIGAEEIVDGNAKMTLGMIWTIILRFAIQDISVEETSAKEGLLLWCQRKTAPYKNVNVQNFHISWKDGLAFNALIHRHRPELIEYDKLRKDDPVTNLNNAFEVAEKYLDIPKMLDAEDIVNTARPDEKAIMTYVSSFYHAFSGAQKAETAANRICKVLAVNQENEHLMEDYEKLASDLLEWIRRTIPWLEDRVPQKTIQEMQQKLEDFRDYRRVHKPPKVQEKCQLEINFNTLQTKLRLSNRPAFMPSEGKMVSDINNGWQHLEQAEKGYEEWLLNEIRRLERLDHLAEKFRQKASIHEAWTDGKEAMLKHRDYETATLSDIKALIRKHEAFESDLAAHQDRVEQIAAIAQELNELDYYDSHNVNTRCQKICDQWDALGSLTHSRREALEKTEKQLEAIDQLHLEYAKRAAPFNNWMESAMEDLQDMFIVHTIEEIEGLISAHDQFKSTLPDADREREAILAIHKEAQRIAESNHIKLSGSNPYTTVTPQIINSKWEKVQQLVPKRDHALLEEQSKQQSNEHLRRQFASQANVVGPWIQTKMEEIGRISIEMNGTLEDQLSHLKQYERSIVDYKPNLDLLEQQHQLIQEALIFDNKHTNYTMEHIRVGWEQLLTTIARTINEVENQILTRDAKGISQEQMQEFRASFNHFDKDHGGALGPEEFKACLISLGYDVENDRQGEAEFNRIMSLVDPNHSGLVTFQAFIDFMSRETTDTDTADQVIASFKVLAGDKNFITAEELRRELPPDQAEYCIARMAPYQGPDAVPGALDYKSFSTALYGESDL
UniProt Q9Y678: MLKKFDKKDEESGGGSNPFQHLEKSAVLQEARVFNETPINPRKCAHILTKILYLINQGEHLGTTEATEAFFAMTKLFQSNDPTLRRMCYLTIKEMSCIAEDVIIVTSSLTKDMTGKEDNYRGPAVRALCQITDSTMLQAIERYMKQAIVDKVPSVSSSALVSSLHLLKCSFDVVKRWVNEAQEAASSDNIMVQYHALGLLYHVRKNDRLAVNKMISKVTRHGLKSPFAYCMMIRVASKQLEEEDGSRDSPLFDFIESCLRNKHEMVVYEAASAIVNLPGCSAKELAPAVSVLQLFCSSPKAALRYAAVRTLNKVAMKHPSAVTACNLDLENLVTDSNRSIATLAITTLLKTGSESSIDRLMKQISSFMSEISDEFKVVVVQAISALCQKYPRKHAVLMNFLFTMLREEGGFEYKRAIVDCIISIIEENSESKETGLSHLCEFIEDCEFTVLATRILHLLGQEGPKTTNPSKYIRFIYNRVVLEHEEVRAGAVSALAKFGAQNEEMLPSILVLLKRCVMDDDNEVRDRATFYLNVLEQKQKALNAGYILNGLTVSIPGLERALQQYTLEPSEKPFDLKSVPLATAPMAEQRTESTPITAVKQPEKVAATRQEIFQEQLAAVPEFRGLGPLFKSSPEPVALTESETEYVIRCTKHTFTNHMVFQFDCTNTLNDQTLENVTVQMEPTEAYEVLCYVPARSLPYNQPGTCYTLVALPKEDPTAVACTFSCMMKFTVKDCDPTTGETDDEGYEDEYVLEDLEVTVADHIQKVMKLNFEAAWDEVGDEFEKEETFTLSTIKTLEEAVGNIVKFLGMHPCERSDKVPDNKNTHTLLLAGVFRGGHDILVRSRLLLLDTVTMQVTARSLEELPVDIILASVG
UniProt P12814: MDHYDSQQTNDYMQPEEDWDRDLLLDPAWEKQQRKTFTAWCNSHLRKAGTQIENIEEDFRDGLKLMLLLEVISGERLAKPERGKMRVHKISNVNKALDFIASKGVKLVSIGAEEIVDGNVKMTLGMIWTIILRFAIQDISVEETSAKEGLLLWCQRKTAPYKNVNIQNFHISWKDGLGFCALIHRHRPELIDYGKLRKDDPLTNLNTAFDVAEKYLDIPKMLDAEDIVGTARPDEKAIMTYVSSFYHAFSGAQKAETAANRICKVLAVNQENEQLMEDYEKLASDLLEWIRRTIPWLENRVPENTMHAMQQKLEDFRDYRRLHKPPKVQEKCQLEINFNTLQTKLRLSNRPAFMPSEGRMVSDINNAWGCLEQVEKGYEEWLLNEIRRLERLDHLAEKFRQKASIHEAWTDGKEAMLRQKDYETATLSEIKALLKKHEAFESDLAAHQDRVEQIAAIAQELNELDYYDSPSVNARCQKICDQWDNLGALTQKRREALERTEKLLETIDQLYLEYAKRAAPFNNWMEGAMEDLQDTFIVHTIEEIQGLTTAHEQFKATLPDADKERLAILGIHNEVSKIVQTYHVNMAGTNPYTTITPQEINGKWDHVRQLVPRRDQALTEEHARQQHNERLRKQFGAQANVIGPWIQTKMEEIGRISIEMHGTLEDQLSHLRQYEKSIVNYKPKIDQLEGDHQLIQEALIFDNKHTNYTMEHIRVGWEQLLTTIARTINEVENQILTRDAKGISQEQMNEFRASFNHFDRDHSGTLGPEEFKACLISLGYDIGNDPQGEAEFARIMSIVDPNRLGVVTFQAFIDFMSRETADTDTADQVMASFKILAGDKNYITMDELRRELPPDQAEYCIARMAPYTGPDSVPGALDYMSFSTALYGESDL
UniProt P14625, residues 22-803: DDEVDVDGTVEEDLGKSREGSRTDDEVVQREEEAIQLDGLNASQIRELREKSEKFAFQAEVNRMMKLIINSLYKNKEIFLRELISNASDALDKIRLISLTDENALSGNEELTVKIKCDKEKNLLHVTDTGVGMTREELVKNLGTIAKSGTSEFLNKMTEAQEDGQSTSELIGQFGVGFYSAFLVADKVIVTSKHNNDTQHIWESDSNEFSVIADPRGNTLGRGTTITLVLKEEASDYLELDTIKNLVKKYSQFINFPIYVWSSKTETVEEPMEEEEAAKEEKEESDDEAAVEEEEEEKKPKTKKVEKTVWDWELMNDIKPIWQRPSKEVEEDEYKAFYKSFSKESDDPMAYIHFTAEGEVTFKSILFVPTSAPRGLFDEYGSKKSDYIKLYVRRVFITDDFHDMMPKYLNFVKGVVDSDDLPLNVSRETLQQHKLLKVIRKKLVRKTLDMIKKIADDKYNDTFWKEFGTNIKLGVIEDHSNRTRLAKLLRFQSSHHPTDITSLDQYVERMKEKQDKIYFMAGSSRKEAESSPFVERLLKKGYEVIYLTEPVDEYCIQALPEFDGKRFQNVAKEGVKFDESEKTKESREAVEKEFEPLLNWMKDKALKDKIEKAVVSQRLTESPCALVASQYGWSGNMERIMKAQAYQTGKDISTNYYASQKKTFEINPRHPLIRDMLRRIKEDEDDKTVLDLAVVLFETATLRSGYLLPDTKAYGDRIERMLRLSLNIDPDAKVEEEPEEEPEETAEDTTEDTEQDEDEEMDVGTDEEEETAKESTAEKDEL

How the values were obtained:
[1] = biological target: purified NCL (from Jurkat cells) (UniProt P19338); assay: biotin pull-down of purified NCL, anti-NCL immunoblot
[2] = biological target: GFP-NCL (residues 1-710) (human) (UniProt P19338); assay: biotin pull-down from HEK293T lysates, anti-GFP immunoblot
[3] = biological target: VCP (human) (UniProt P55072); assay: biotin pull-down from MDA-MB-231 whole lysate on avidin beads, bands cut from the elution lane, LC-MS/MS (Mascot); direct contact not shown, no confirming blot
[4] = biological target: ACTN4 (human) (UniProt O43707); assay: as above
[5] = biological target: COPG1 (human) (UniProt Q9Y678); assay: as above
[6] = biological target: ACTN1 (human) (UniProt P12814); assay: as above
[7] = biological target: HSP90B1 (human) (UniProt P14625); assay: as above
[8] = biological target: nucleolin (NCL) from MDA-MB-231 cell lysate (human) (UniProt P19338); assay: biotin pull-down from MDA-MB-231 lysate, LC-MS/MS and anti-NCL immunoblot
[9] = biological target: nucleolin (NCL) from MDA-MB-231 cell lysate (human) (UniProt P19338); assay: pull-down assay and LC-MS/MS
[10] = biological target: nucleolin (NCL) from MDA-MB-231 cell lysate (human) (UniProt P19338); assay: biotin pull-down from MDA-MB-231 lysate, LC-MS/MS
[11] = biological target: T1, membrane nucleolin (NCL) on cancer cells (human, UniProt P19338 2-710); assay: confocal microscopy of MDA-MB-231 cells after knockdown of NCL with siNCL1, 5 µmol/l AGM-330-FITC
T1 construct: whole, on cells; also called membrane NCL; membrane-expressed NCL

[12] = biological target: T1, membrane nucleolin (NCL) on cancer cells; assay: confocal microscopy of MDA-MB-231 cells after knockdown of NCL with siRNA, 5 µmol/l AGM-330-FITC
[13] = biological target: T1, membrane nucleolin (NCL) on cancer cells; assay: double immunofluorescence, confocal microscopy, cancer cells with 5 µmol/l AGM-330-FITC
[14] = biological target: T1, membrane nucleolin (NCL) on cancer cells; assay: ELISA on cancer cells, biotin-conjugated PEGylated peptide, avidin-HRP
[15] = biological target: T1, membrane nucleolin (NCL) on cancer cells; assay: cell ELISA: biotin-conjugated PEGylated peptide on cancer cells (cell line not given), 2 h, avidin-HRP/TMB, absorbance at 450 nm
Procedure: Cancer cells (1×10⁴ cells/well) were seeded in 96-well plates and cultured for 24 hours, and then the cells were treated with increasing concentrations of 13 biotin-conjugated peptides for 2 hours. Then, avidin-HRP was attached through a high-affinity avidin-biotin interaction, and the TMB substrate was converted to blue through HRP enzyme. Then, the reaction was terminated by adding an acid, and the affinities of the 13 peptides were assessed by ELISA by reading the wells at […].
Cancer cells (1×10⁴ cells/well) were cultured in 96-well plates for 24 hours. AGM-330 and the 12 PEGylated peptides shown Table 2 were biotin-conjugated, and the cells were treated with increasing concentrations of the 13 peptides for 2 hours.
Thereafter, avidin-HRP was attached through a high-affinity avidin-biotin interaction, and the TMB substrate was converted to blue color through HRP enzyme. Then, the reaction was terminated by adding an acid, and the affinities of the 13 peptides were assessed by ELISA by reading the wells at […].

Measured: binding

RHGAMVYLK (biotin-conjugated (site not stated)) [Biotinylated AGM-330]
not listed: [11] | [12] | [13] | [14] | [15]
binds: all other assays above

RHGAMVYLK (FITC-labeled (site not stated)) [FITC-labeled AGM-330]
binds: [11] | [12] | [13]

RHRHRHGAMVYLK (PEGylated; biotin-conjugated (sites not given)) [AGM-330 variant R1H2R3H4 → Insertion (SEQ ID NO: 18)]
binds: [14] | [15]
